Assay results: the supplement of paper PMC12823440, “Inhibitors supercharge kinase turnover through native proteolytic circuits” (Nature, 2025)
The other results are listed elsewhere or left out. The calls rarely recur for the same compound in another form.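 Kinases were expressed as nanoluciferase fusions in K562 cells and luminescence was read every 4 h between 2 and 18 h as percent of control, DMSO set to 100% and a positive control to 0%. A time point counts as decreased when the signal drops significantly (2 sigma). The hit call is the authors' own, does not follow from the count of time points alone, and its rule is not shown.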

Chains of the proteins cited; added tags and fusions are not shown.
UniProt O96017, whole entry: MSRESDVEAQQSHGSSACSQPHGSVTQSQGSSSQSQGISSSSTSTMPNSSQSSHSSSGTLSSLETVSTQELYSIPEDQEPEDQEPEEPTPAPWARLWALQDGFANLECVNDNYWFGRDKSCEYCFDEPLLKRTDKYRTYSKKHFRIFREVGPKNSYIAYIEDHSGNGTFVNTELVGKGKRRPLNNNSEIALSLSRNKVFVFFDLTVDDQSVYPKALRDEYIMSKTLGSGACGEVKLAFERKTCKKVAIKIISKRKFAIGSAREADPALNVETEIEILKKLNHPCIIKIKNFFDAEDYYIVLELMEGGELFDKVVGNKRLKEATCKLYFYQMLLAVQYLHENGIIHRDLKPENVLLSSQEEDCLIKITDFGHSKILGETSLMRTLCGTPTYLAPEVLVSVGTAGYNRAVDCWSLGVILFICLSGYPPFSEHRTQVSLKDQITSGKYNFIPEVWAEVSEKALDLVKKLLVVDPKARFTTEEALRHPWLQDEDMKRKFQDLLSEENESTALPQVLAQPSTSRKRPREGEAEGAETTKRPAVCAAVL

target: CHEK2 (UniProt O96017); assay: kinase-Nluc reporter destabilization hit call (1 = scored as downregulated) (binary); higher = compound decreases kinase abundance; details: K562; 2-18 h

kinase-Nluc reporter destabilization hit call, inactive:
COc1ccc(NC(=O)N2CCN(c3nc(N)nc4c3cnn4C)[C@@H](C)C2)c(C)c1 (10 µM) 0
O=C(Nc1ccc(-c2ccnc(Nc3ccc(N4CCOCC4)cc3)n2)cc1)C1CCCN1 (configuration not stated) (10 µM) 0
COc1nccc(-c2c(-c3ccc(F)cc3)ncn2C2CCC(O)CC2)n1 (configuration not stated) (10 µM) 0
Cc1cc(C)c(/C=C2\C(=O)Nc3ccccc32)[nH]1 [Semaxinib] (10 µM) 0
COc1ccc(COc2ccc(Cc3cnc(N)nc3N)cc2OC)cc1 (10 µM) 0
CN1CCN(c2ccc(Nc3cc(-c4cccc(-n5ccc6cc(C7CC7)cc(F)c6c5=O)c4CO)cn(C)c3=O)nc2)CC1 (2.5 µM) 0
C=CC(=O)N1CCC[C@@H](n2nc(-c3ccc(Oc4ccccc4)cc3)c(C(N)=O)c2N)C1 [Btk inhibitor 2] (10 µM) 0
Cc1c(NC(=O)c2cc3c(s2)CCCC3)cccc1-c1cn(C)c(=O)c(Nc2ccc([C@@H]3C(=O)N(C)CCN3C)cc2)n1 (10 µM) 0
CCOc1ccn(-c2ccc(F)cc2)c(=O)c1C(=O)Nc1ccc(Oc2ccnc(N)c2Cl)c(F)c1 (10 µM) 0
CCn1c(=O)c2cc(C(N)=O)c(N)nc2n(C2CC2)c1=O (10 µM) 0
COc1cc(C(=O)NC2CCN(C)CC2)ccc1Nc1ncc2c(n1)N(C1CCCC1)CC(F)(F)C(=O)N2C (10 µM) 0
CCN1CCN(c2ccc(Nc3cc(N(C)C(=O)Nc4c(Cl)c(OC)cc(OC)c4Cl)ncn3)cc2)CC1 [Infigratinib] (10 µM) 0
